The source of these data is US20110136741A1 (priority 2008, published 2011).

The data set can be described thus: general procedure: Fmoc solid-phase peptide synthesis; H-L-Thr(tBu)-ol-2-chlorotrityl resin; Rink amide or Rink amide AM resin; HATU/NMM. As to conditions: whole synthesis.

“unsaturated cyclic peptide of formula (I) in which −Λ is the chelating group DOTA, R=benzyl, R1 is a bond, CH^2 is in D configuration, CH^3 is in L configuration, X=1-Nal Y=D-Tr W=Lys, Z=Thr, R2=-NHThr (ol)” yielded an isolated yield of 29%.
With “cyclic unsaturated peptide of formula (I) in which -ΛA is H, R=benzyl, R1 is a bond, CH^2 is in D configuration, CH^3 is in L configuration, X=1-Nal, Y=D-Trp, W=Lys, Z=Thr, R2=-NHThr(ol)”, the isolated yield was determined as 11%. Further, the “final HPLC purity” value (RP-HPLC) is greater than 98%.
For the substance “Fmoc-Hag^3-Phe^6-Phe^7-D-Trp^8-Lys^9-Thr^10-Phe^11-Hag^14-NH2”, the “crude HPLC purity” value (RP-HPLC) is reported as “around 95%”.
Same read-out and setting: then “Fmoc-Hag^3(allylglycine)-1-Nal^7-D-Trp^8-Lys^9-Thr^10 -Haq^14-Thr(ol)^15”, with “about 95%”.
